The source of these data is US20110059962A1, “TRANSCRIPTION FACTOR MODULATING COMPOUNDS AND METHODS OF USE THEREOF” (priority 2009, published 2011).

Where a protein sequence is shown, tags need not be part of it.

The data set has as its target T1, SoxS (Escherichia coli) (UniProt P0A9E2).
T1 sequence (looked up, limits assumed): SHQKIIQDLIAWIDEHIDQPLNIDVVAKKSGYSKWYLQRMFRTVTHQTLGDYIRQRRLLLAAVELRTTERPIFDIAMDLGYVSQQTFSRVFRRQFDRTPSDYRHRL
Nature of the data set: binding assay. The settings on record: chemiluminescence plate assay, 20 nM protein, 2 nM DNA; binding inhibited by compounds; DNA sequence given only in Example 12; purified recombinant protein; protein details: 6xHis.

For “CCGATTTAGCAAAACGTCGCATCGGTC (double strand) [biotinylated target dsDNA]”, the binding result was “binds”.
